The text below walks through data of the supplement of paper PMC10849652.

Chains of the proteins cited; added tags and fusions are not shown. Lines headed by an entry give the natural chain unless they say otherwise; changes in a name come on top.
UniProt O60333: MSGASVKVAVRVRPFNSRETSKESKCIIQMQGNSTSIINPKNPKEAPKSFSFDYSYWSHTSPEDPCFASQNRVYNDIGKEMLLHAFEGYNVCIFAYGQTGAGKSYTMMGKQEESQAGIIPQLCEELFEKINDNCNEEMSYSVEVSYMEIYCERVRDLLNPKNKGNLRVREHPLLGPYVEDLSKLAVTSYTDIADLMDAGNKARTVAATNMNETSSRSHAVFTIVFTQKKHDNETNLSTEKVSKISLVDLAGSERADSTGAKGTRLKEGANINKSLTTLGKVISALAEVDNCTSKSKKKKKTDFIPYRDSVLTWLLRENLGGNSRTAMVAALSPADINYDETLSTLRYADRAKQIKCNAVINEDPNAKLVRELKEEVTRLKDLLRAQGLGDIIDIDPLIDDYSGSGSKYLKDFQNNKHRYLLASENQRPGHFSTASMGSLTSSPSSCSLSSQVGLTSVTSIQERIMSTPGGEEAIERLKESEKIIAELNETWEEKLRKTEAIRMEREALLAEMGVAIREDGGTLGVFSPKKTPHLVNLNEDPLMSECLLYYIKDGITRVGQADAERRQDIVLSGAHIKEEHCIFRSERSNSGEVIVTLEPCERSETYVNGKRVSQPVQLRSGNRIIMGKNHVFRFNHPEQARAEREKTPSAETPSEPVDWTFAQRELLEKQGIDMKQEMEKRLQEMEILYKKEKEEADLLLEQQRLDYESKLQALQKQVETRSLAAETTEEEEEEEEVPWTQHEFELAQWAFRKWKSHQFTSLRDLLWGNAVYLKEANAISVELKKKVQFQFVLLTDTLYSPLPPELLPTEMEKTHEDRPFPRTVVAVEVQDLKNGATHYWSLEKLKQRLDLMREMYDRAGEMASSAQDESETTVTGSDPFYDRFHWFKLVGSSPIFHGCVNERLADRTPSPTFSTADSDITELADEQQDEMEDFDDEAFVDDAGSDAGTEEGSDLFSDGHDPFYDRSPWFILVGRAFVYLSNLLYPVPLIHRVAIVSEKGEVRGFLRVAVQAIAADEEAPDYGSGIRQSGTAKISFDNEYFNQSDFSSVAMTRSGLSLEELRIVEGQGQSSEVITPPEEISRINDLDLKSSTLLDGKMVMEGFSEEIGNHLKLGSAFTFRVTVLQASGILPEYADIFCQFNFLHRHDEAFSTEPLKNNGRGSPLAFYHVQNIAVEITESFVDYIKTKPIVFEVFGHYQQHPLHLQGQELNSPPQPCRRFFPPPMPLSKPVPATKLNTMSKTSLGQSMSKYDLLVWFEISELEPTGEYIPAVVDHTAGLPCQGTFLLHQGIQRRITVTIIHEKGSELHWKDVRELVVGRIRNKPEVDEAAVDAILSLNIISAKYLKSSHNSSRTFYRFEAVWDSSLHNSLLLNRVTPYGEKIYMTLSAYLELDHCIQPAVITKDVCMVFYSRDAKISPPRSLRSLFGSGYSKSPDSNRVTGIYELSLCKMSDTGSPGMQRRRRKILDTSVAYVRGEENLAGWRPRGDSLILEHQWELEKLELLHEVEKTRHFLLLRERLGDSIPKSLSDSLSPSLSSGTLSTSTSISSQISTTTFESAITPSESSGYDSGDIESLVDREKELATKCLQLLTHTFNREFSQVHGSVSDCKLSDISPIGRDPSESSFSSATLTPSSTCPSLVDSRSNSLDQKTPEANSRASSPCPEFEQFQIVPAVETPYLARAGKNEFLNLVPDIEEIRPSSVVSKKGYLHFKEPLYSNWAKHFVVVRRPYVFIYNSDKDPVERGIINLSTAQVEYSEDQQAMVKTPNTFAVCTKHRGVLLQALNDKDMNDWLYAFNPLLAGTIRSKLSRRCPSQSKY
UniProt Q8N6L1: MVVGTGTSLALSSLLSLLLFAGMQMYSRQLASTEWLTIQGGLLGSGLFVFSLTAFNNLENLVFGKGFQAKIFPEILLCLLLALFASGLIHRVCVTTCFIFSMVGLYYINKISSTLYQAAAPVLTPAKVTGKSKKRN
UniProt Q14145, whole entry, looked up: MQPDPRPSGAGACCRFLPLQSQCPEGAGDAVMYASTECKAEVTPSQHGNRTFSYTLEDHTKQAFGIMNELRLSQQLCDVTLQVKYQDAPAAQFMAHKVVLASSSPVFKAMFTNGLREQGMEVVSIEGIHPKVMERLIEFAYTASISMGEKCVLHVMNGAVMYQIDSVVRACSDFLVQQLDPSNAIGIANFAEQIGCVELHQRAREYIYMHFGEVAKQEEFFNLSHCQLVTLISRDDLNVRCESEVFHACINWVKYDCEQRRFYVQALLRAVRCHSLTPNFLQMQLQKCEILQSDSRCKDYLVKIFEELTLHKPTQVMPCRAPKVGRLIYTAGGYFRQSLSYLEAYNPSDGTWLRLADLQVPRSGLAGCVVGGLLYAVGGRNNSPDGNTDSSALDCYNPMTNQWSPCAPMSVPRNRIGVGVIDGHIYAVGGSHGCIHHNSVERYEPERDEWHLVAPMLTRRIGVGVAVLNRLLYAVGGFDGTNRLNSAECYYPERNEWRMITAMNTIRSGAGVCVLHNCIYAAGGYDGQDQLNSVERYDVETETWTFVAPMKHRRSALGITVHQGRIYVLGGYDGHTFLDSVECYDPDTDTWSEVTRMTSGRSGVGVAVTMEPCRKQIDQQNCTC
UniProt Q12840: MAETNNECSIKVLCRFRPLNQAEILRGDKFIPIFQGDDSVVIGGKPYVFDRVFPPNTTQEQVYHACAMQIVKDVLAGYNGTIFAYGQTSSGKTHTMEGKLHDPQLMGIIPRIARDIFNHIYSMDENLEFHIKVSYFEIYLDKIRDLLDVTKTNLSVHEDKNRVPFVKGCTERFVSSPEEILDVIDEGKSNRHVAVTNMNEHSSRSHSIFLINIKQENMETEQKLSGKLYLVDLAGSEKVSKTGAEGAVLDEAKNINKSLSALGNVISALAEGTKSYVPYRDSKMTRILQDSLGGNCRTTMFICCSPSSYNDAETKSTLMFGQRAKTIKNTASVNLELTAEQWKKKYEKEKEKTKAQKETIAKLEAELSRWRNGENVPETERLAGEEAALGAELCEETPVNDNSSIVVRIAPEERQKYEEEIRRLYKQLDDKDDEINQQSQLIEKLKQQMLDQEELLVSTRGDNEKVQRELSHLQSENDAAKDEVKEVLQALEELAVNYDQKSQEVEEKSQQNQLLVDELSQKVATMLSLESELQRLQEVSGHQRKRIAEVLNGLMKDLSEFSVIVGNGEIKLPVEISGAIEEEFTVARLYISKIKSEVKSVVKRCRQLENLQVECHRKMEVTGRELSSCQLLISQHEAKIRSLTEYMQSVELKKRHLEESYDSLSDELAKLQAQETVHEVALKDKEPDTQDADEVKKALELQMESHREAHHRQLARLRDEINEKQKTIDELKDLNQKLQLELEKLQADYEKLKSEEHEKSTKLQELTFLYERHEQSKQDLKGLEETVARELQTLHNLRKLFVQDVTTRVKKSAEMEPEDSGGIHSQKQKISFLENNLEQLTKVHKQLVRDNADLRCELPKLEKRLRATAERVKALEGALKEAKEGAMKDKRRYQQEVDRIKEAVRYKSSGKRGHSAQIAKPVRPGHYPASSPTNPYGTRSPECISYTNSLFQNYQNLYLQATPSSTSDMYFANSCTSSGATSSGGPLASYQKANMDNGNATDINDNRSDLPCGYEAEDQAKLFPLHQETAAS
UniProt Q96AT1: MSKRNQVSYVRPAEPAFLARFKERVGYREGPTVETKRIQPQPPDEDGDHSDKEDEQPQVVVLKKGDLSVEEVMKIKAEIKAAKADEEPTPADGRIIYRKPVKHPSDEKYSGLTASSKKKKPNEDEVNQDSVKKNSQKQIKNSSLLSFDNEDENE
UniProt Q5JYT7: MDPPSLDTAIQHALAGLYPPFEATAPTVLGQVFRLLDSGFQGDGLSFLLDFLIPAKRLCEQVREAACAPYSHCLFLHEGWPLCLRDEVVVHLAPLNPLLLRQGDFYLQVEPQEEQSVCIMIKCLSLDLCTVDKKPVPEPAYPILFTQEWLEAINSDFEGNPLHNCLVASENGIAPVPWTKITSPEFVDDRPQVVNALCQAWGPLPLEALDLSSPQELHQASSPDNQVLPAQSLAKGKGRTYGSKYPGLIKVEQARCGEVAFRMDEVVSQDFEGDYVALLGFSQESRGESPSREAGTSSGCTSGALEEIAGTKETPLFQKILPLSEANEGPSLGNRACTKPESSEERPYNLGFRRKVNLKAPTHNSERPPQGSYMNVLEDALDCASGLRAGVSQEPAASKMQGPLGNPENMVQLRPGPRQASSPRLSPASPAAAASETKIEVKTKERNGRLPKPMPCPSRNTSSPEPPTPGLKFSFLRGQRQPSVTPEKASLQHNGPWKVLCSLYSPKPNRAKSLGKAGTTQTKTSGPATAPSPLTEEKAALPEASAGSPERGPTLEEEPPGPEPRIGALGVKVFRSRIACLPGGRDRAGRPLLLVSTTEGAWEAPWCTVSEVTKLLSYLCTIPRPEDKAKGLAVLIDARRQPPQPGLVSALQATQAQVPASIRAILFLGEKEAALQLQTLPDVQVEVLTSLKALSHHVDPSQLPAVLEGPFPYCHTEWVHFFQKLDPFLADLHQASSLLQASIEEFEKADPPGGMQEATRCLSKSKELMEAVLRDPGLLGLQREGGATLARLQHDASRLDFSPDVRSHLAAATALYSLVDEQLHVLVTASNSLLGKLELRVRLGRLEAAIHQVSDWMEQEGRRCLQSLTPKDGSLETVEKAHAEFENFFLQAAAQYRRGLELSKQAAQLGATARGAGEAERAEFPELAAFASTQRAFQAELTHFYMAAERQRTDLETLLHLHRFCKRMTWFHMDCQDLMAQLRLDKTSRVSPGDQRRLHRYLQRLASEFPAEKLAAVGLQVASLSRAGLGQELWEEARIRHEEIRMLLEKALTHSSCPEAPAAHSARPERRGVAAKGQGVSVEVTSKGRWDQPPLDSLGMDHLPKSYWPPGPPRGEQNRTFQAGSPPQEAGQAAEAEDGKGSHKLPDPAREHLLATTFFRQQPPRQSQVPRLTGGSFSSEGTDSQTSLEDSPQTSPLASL
UniProt Q9UK76: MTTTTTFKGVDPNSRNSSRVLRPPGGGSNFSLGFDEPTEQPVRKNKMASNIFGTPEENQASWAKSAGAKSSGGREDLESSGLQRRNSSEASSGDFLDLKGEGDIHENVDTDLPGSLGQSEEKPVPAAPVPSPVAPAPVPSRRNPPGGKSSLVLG
UniProt Q9BQ90: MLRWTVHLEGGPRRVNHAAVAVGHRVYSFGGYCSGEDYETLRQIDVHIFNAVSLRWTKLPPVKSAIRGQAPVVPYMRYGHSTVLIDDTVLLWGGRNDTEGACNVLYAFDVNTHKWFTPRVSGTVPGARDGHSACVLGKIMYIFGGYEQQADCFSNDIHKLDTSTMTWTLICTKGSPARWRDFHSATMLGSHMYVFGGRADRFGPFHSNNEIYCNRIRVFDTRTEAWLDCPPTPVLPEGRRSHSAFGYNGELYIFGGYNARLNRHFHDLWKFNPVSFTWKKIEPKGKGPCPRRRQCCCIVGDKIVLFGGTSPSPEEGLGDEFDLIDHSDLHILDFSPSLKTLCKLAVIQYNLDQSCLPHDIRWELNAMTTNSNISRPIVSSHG
UniProt Q8N5M9: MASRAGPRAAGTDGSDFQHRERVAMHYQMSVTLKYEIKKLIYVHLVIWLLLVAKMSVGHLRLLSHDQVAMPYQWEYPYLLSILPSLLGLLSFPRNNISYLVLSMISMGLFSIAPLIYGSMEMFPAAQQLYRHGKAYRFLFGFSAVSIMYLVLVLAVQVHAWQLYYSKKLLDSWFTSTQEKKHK
UniProt Q9BW62: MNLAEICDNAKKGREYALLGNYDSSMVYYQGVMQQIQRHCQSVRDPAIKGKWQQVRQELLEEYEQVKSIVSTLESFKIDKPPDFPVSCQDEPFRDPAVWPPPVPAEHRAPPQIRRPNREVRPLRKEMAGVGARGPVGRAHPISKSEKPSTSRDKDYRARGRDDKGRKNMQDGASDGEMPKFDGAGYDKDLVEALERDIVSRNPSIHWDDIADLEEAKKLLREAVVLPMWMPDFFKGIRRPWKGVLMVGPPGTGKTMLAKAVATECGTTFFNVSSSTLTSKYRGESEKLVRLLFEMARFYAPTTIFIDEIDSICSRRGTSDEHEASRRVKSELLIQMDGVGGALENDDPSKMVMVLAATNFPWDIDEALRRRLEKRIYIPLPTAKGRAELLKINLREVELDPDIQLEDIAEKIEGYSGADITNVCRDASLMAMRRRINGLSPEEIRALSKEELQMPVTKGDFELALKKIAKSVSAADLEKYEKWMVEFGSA
UniProt Q96A73: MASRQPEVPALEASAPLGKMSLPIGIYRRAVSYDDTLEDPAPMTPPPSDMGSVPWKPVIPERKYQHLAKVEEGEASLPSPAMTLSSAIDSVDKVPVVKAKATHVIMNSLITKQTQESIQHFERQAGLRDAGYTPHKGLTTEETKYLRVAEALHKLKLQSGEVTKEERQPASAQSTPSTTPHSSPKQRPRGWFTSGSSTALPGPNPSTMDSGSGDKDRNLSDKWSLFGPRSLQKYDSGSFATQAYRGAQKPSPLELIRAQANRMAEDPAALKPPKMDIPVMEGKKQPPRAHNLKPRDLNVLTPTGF

This is one part of the list.

Compound in the first assay: Cc1sc2c(c1C)C(c1ccc(Cl)cc1)=N[C@@H](CC(=O)OC(C)(C)C)c1nnc(C)n1-2
Briefly: log2 fold change, soluble protein after heating vs DMSO (PISA); higher = thermal stabilisation; K562 cells, 10 uM, 30 min; active = over 0.2 and 3.5 SD of the protein, either way, in both replicates (recomputed). In short, it runs like this: (§1)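 Soluble protein was defined as the supernatant after 21,000xg for 90 min. It came from K562 cells at 2×10^6 cells/mL given 10 μM compound for 30 min, heated in aliquots for 3 min across 48°C-58°C, pooled, and extracted in PBS with 0.5% NP-40 at 4°C, and was quantified by TMTpro 16plex LC-MS/MS with equalised channel sums. Thermal stability against control samples, from duplicates, is reported as log2 fold change.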
As for KIF1B isoform 4 (UniProt O60333), the log2 fold change is inactive: -0.025.
Still for that read-out and setting: under KATNA1 (UniProt O75449) stands inactive: 0.071; under KRTCAP2 isoform 2 (UniProt Q8N6L1), inactive: 0.
On the same count and under the same terms, under KEAP1 (UniProt Q14145) stands inactive: 0.021.
Still for that read-out and setting: to KDM1A isoform 2 (UniProt O60341) belongs inactive: -0.019.
Consider KIF5A (UniProt Q12840), for which the log2 fold change is inactive: 0.048.
As for KIF23 (UniProt Q02241), the log2 fold change is inactive: -0.093.
Same read-out and setting: to KPNB1 (UniProt Q14974) belongs inactive: 0.001.
On the same count and under the same terms, to KIAA1143 (UniProt Q96AT1) belongs inactive: 0.004; to KIAA1755 (UniProt Q5JYT7), inactive: 0.034.
The same measure, in the same setting: under JPT1 (UniProt Q9UK76) stands inactive: -0.021; under ITPRIP (UniProt Q8IWB1), inactive: -0.081; under KLHDC3 (UniProt Q9BQ90), inactive: -0.039.
Consider KIAA2013 isoform 2 (UniProt Q8IYS2), for which the log2 fold change is inactive: -0.011.
For KNSTRN (UniProt Q9Y448), the log2 fold change was inactive: 0.049.
With JAGN1 (UniProt Q8N5M9), the log2 fold change was inactive: -0.109.
Same read-out and setting: under KCNAB2 (UniProt Q13303) stands inactive: 0.023.
On the same count and under the same terms, under KATNAL1 (UniProt Q9BW62) stands inactive: -0.084; under KATNB1 (UniProt Q9BVA0), inactive: 0.06; under KIFBP (UniProt Q96EK5), inactive: -0.058.
Same read-out and setting: to KIF5B (UniProt P33176) belongs inactive: 0.001; to KIAA1191 (UniProt Q96A73), inactive: -0.055; to KNTC1 (UniProt P50748), inactive: -0.011.
KDM3B (UniProt Q7LBC6): the log2 fold change was inactive: 0.038.
With KPTN (UniProt Q9Y664), the log2 fold change was inactive: -0.135.
On the same count and under the same terms, under KCMF1 (UniProt Q9P0J7) stands inactive: 0.047; under KIF15 (UniProt Q9NS87), inactive: 0.043; under KARS1 (UniProt Q15046), inactive: 0.125.

Compound in another assay: c1ccc([C@@H]2C[C@H]2NC2CCNCC2)cc1
Described as above. Summed up: as §1
Consider KIF1B isoform 4 (UniProt O60333), for which the log2 fold change was inactive: -0.048.
Still for that read-out and setting: to KATNA1 (UniProt O75449) belongs inactive: 0.001; to KRTCAP2 isoform 2 (UniProt Q8N6L1), inactive: 0.07; to KEAP1 (UniProt Q14145), inactive: 0.001.
Same read-out and setting: to KDM1A isoform 2 (UniProt O60341) belongs active: 1.73; to KIF5A (UniProt Q12840), inactive: -0.002; to KIF23 (UniProt Q02241), inactive: -0.035.
KPNB1 (UniProt Q14974): the log2 fold change was inactive: -0.021.
For the target KIAA1143 (UniProt Q96AT1), the log2 fold change is inactive: 0.054.
For the target KIAA1755 (UniProt Q5JYT7), the log2 fold change was inactive: 0.012.
Consider JPT1 (UniProt Q9UK76), for which the log2 fold change was inactive: -0.004.
The same measure, in the same setting: under ITPRIP (UniProt Q8IWB1) stands inactive: 0.027; under KLHDC3 (UniProt Q9BQ90), inactive: -0.022.
The same measure, in the same setting: to KIAA2013 isoform 2 (UniProt Q8IYS2) belongs inactive: 0; to KNSTRN (UniProt Q9Y448), inactive: 0.006; to JAGN1 (UniProt Q8N5M9), inactive: 0.027.
With KCNAB2 (UniProt Q13303), the log2 fold change was inactive: 0.065.
The same measure, in the same setting: under KATNAL1 (UniProt Q9BW62) stands inactive: -0.034.
Turning to KATNB1 (UniProt Q9BVA0), the log2 fold change was inactive: -0.026.
Same read-out and setting: under KIFBP (UniProt Q96EK5) stands inactive: 0.005; under KIF5B (UniProt P33176), inactive: -0.041; under KIAA1191 (UniProt Q96A73), inactive: 0.043.
Same read-out and setting: under KNTC1 (UniProt P50748) stands inactive: -0.008; under KDM3B (UniProt Q7LBC6), inactive: 0.071; under KPTN (UniProt Q9Y664), inactive: -0.111.
Still for that read-out and setting: under KCMF1 (UniProt Q9P0J7) stands inactive: 0.019; under KIF15 (UniProt Q9NS87), inactive: 0.012; under KARS1 (UniProt Q15046), inactive: 0.033.
